In test [1] the target is purified human complement C3 (human). As to the kind of experiment: ELISA. (In general: In an ELISA, binding on a coated surface is turned into a signal by an enzyme label.)
Test [2] addresses purified human complement C4 (human). Put plainly: ELISA.

This is an account of results in article doi:10.1101/2022.09.22.509106.

These are yes or no findings as the source states them, for the method shown. Where a sequence is shown, tags or fusion partners need not be part of it.

B1: neuronal pentraxin 2 (Nptx2), purified recombinant, His-tagged (protein, UniProt P47972 16-431)
chain: GAQDSPAPGSRFVCTALPPEAVHAGCPLPAMPMQGGAQSPEEELRAAVLQLRETVVQQKETLGAQREAIRELTGKLARCEGLAGGKARGAGATGKDTMGDLPRDPGHVVEQLSRSLQTLKDRLESLEHQLRANVSNAGLPGDFREVLQQRLGELERQLLRKVAELEDEKSLLHNETSAHRQKTESTLNALLQRVTELERGNSAFKSPDAFKVSLPLRTNYLYGKIKKTLPELYAFTICLWLRSSASPGIGTPFSYAVPGQANEIVLIEWGNNPIELLINDKVAQLPLFVSDGKWHHICVTWTTRDGMWEAFQDGEKLGTGENLAPWHPIKPGGVLILGQEQDTVGGRFDATQAFVGELSQFNIWDRVLRAQEIVNIANCSTNMPGNIIPWVDNNVDVFGGASKWPVETCEERLLDL
Take B1: the binding result in test [1] and in test [2] was “no binding (tested: 4 µg/mL)” each time.

B2: neuronal pentraxin 1 (Nptx1), purified recombinant, His-tagged (protein, UniProt Q15818 23-432)
chain: QDFGPTRFICTSVPVDADMCAASVAAGGAEELRSSVLQLRETVLQQKETILSQKETIRELTAKLGRCESQSTLDPGAGEARAGGGRKQPGSGKNTMGDLSRTPAAETLSQLGQTLQSLKTRLENLEQYSRLNSSSQTNSLKDLLQSKIDELERQVLSRVNTLEEGKGGPRNDTEERVKIETALTSLHQRISELEKGQKDNRPGDKFQLTFPLRTNYMYAKVKKSLPEMYAFTVCMWLKSSATPGVGTPFSYAVPGQANELVLIEWGNNPMEILINDKVAKLPFVINDGKWHHICVTWTTRDGVWEAYQDGTQGGSGENLAPYHPIKPQGVLVLGQEQDTLGGGFDATQAFVGELAHFNIWDRKLTPGEVYNLATCSTKALSGNVIAWAESHIEIYGGATKWTFEACRQIN
As for B2, the binding result in test [1] and in test [2] was “no binding (tested: 4 µg/mL)” in each case.
